According to patent publication US20210284724A1:
No constants are given. Whether binding was seen depends on the method and setting. Some binding calls cover weakened binding; strength is not graded here. Blank lines part the entries; values can stand above or below the binder they belong to.

Amino acid sequences for entries named in this document (tags omitted). A change or cut given only in a name is not applied to a line headed by its entry. Chains listed by the source or under a name are the forms on record and can include a tag or linker. Residues count along the entry.
cynomolgus CXCL13 (H6WS58, form named): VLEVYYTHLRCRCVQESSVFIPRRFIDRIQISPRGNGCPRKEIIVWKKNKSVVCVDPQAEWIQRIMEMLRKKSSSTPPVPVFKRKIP
UniProt O43927, residues 23-109: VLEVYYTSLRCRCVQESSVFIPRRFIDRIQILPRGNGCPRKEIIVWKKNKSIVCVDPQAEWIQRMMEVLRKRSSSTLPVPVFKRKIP
UniProt O55038, residues 22-109: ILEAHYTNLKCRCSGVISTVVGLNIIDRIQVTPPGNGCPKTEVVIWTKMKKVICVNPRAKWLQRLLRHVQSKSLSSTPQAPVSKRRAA

What was measured:
[1] = biological target: cynomolgus CXCL13 (cynomolgus) (UniProt H6WS58); test: ELISA, full length IgG1
[2] = biological target: cynomolgus CXCL13 (cynomolgus) (UniProt H6WS58); test: ELISA, cynoCXCL13 coated on the plate, full length humanized IgG1 titrated, OD450
[3] = biological target: cynomolgus CXCL13 (cynomolgus) (UniProt H6WS58); test: ELISA, subclone supernatants
[4] = biological target: cynomolgus CXCL13 (cynomolgus) (UniProt H6WS58); test: ELISA, cynoCXCL13 coated on the plate, chimeric IgG1 titrated, OD450
[5] = biological target: human CXCL13 (human) (UniProt O43927); test: ELISA, subclone supernatants
[6] = biological target: mouse CXCL13 (mouse) (UniProt O55038); test: ELISA, subclone supernatants
[7] = biological target: human CXCL13 (human) (UniProt O43927); test: ELISA, full length IgG1

binding [1]: binds
binding [2]: binds
B1: 64C10G1-VH1VL3 (D53E, D107E) humanized IgG1 (antibody, V domains shown)
VH: EVQLVESGGGLVQPGGSLRLSCAASGFTFSSYAMSWVRQAPGKGLEWVATISEGGSDAYYPDNVKGRFTISRDNAKNSLYLQMNSLRAEDTAVYYCARDYYGSGYEESPMDYWGQGTLVTVSS
VL: DIQMTQSPSSLSASVGDRVTITCKASQDINKYIAWYQQKPGKAPKLLIHYTSTLQPGIPSRFSGSGSGTDFTFTISSLQPEDFATYYCLQYDNLYTFGGGTKLEIK

binding [3]: binds
B2: 19H7E10 (antibody, V domains shown)
VH: EVQLQQSGPELVKPGASVKISCQASGYAFSDYYMNWVKQSHGKRLEWIGDINPNNDGTTYNQKFKDKATLTVDKSSSTAYMDLRSLTSEDSAVYYCARLSWSFFAMDYWGQGTSVTVSS
VL: DIVMTQSHKFMSTSVGDRVSITCKASQDVSSGVAWYQQKPGQSPKVLIYSASHRHTGVPDRFTASGSGTDFTFTISSVQAEDLAVYYCQQYYNTPWTFGGGTKLEIK

binding [3]: binds
B3: 415A3D1F4 (antibody, V domains shown)
VH: EVKLLESGGGLVQAGGSMRLSCGAFGFTVTDFYINWIRQPAGKAPEWLGFMRNKANGYTTEYNPSVKGRFTISRNNTQNMPYLQMNTLRTEDTAIYYCARSRYNADDYYVGVMDVWGQGASVTVSS
VL: DIQMTQFPASLSASLGETVSIECLASEDIYNNLAWYQQKPGKSPQLLIYYTNSLQDGVPSRFSGTGSGTQYSLKINSLESEDAATYFCLQDSEYPWTFGGGTKLKLK

binding [4]: binds
B4: 64C10G1 chimeric human IgG1 antibody (antibody, V domains shown)
VH: EVQLVESGGGLVKPGGSLKLSCAASGFTFSSYAMSWVRQTPEKRLEWVATISDGGSDAYYPDNVKGRFTISRDNAKNNLYLQMSHLKSEDTAMYYCARDYYGSGYEDSPMDYWGQGTSVTVSS
VL: DIQMTQSPSSLSASLGGKVTITCKASQDINKYIAWYQHKPGKGPRLLIHYTSTLQPGIPSRFSGSGSGRDYSFSISNLEPEDFATYYCLQYDNLYTFGGGTKLEIK

binding [3]: binds
B5: 64C10G1 (antibody, V domains shown)
VH: EVQLVESGGGLVKPGGSLKLSCAASGFTFSSYAMSWVRQTPEKRLEWVATISDGGSDAYYPDNVKGRFTISRDNAKNNLYLQMSHLKSEDTAMYYCARDYYGSGYEDSPMDYWGQGTSVTVSS
VL: DIQMTQSPSSLSASLGGKVTITCKASQDINKYIAWYQHKPGKGPRLLIHYTSTLQPGIPSRFSGSGSGRDYSFSISNLEPEDFATYYCLQYDNLYTFGGGTKLEIK

binding [3]: binds
B6: 1H3A11 (antibody, V domains shown)
VH: EVQLVESGGGLVKPGGSLKLSCAASGFTFSSYAMSWVRQTPEKRLEWVATISDGGSDTYYPDNVKGRFTISRDNAKNNLYLQMSHLKSEDTAMYYCARDYYGSSYEDYAMDYWGQGTSVTVSS
VL: DIQMTQSPSSLSASLGGKVTITCKASQDINKYITWYQHKPGKGPRLLIHYTSTLQPGIPSRFSGSGSGRDYSFSISNLEPEDIATYYCLQYDNLYTFGGGTKLEIK

binding [3]: binds
B7: 329F2E1 (antibody, V domains shown)
VH: EVKLLQSGGGLVQPGGSLKLSCAASGIDFSRYWMSWVRRAPGKGLEWIGEINPDSSTINYAPSLKDKFIISRDNAKNTLYLQMSKVRSEDTALYYCARQDDYDYYAMDYWGQGTSVTVSS
VL: DIVMTQSHKFMSTSVGDRVSITCKASQDVSTGVAWYQQKPGQSPKLLIYSASYRYTGVPDRFTGSGSRTDFTFTISSVQTEDPAVYYCHQYYTIPLTFGAGTELELK

binding [5]: binds
B8: 178B2E8 (antibody, V domains shown)
VH: EVKLVESEGGLVQPGSSMKLSCTASGFTFTDYYMTWVRQVPEKGLEWVANINYDGSRTNYLDSLKSRFIISRDNAKNILYLQMSSLKSEDTATYYCARDGNYHFYGMDYWGQGTSVTVSS
VL: DFVLTQSHKFMSTSVGDRVSITCKASQDVSTAVAWYQQKPGQSPQLLIYWASTRHTGVPDRFTGSGSGTDYTLTISSVQAEDLALYYCQQHYSTPWTFGGGTKLEIK

binding [3]: binds
B9: 21H12D9 (antibody, V domains shown)
VH: EVQLQQSGPVLVRPGASVKMSCKASGYTFTDYYMNWVKQSHGKSLEWIGVINPNNGGTTYKEKFKGKATLTVDKSSGTAYMELNSLTSEDSAVYYCARDDYDAGYWGQGTTLTVSS
VL: DIVMTQFQKFMSTTVGDRVSITCKASQNVDTAVAWYQHKPGQSPKLLIYSASHRYTGVPDRFTGSGSGTDFTLTISNVQSEDLADYFCQQYTDFPLTFGAGTKLELK

binding [3]: binds
B10: 411A11E9 (antibody, V domains shown)
VH: EVQLVESGGGLVQPGGSLKLSCVVSGFTFSDYYMAWVRQTPTKGLEWVASINYDGGDTYYRDSVKGRFTVSRNNAKSSLFLQMDSLRSEDTATYYCKTEEDYDGSYVMDAWGQGASVIVSS
VL: DIQMTQSPSFLSASVGDRVTISCKASQNINKELTWYQQKLGKAPKRLIYNTNILQTGIPSRFSGSGSNTDYTLTISSLQPEDFATYFCLQQSSLYTFGAGTKLELK

binding [5]: binds
binding [6]: binds
B11: 430D9B3 (antibody, V domains shown)
VH: QVTLKESGPEILQPSQTLSLTCTFSGFSLSPYGMGVGWIRQPSGKGLEWLANIWWDDDKYYNPSLINRLTISKDTSNNQAFLKITNVDTTDSATYYCVRSELVMPYVPFDYWGQGVMVTVSS
VL: DIQMTQSPSSMSASLGDRVTITCQASQDIENDLIWFQQKPGKSPRPLIYYATNLANGVPSRFSGRRSESNYSLTISSLESEDMADYHCLQFKQYPYTFGAGTKLELK

binding [3]: binds
binding [5]: binds
B12: 408E3F3 (antibody, V domains shown)
VH: HVTLRESGPGVLQPSKTLSLTCSFSGFSLSTSAMVVSWIRQSSGMSLEWLAAIDWEGDKYYNPSLESRLTVSRDISDTQVFLRITSVDVADTATYYCAVMSSADSHSVLDAWGQGVSVTVSS
VL: DIKMTQSPSFLSASVGDRVTINCKASQNIHNYLNWYQQKFGEAPRLLIYNTNNLQTGIPSRFSGSGSGTDFTLTISSLQPEDVATYFCLQHSSSLTFGSGTKLEIN

binding [1]: binds
binding [7]: binds
binding [2]: binds
B13: 71F4A3-VH1VL1 (Hz71F4) (D54E) humanized IgG1 (antibody, V domains shown)
VH: EVQLVESGGGLVQPGGSLRLSCAASGIDFSRYWMSWVRQAPGKGLEWVAEINPESSTINYAPSLKDRFTISRDNAKNSLYLQMNSLRAEDTAVYYCARQDDYEYYAMDYWGQGTTVTVSS
VL: DIQMTQSPSSLSASVGDRVTITCKASQDVNTGVAWYQQKPGKAPKLLIYSASYRYTGVPSRFSGSGSGTDFTFTISSLQPEDIATYYCQQYYSTPLTFGGGTKLEIK

binding [1]: binds
binding [2]: binds
B14: 71F4A3-VH1VL2 (D54E) humanized IgG1 (antibody, V domains shown)
VH: EVQLVESGGGLVQPGGSLRLSCAASGIDFSRYWMSWVRQAPGKGLEWVAEINPESSTINYAPSLKDRFTISRDNAKNSLYLQMNSLRAEDTAVYYCARQDDYEYYAMDYWGQGTTVTVSS
VL: DIQMTQSPSSLSASVGDRVTITCKASQDVNTGVAWYQQKPGKAPKLLIYSASYRYTGVPSRFSGSGSGTDFTFTISSVQPEDIATYYCQQYYSTPLTFGGGTKLEIK

binding [5]: binds
B15: 414D10F5 (antibody, V domains shown)
VH: EVQLAESGGGLVQPGRSLKLSCSASGFTFSDYYMAWFRQAPPKGLEWVASISYDGGDSFYRDSVKGRFTISRDNAKSSLYLQMDSLRSEDTATYYCTTEEDYSGSFPDYWGQGVMVTVSS
VL: DIQMTQSPSFLSASVGDRVTINCKASQNINKYLNWYQQKLGEAPKRLIYDTNNLQAGIPSRFSGSGSGTDYTLTINSLQPEDFATYFCLQHNSLYTFGGGTKLELK
